Results reported in patent US10010614B2, “Derivatives of GLP-1 like peptides, and uses thereof” (Novo Nordisk A/S, priority 2013, dated 2018).
At least one structure is not confirmed: it was looked up by name or label, or the drawing left a doubt. Numbered stars: 1 amine (or outer) side, 2 acyl side, 3 side chain; on linkers, the order of the positions; unused ones are H or OH. Square brackets hold non-standard residues; d marks the D form. Side chains are listed from the residue outwards. Peptide text beside a SMILES is read from it. * marks the point of attachment. C20 diacid = O=C(O)CCCCCCCCCCCCCCCCCCC(=O)*; γGlu = O=C(O)[C@H](CCC(=O)[*:2])N[*:1]; εLys = N[C@@H](CCCCN[*:1])C(=O)[*:2]; Aib = CC(C)(N)C(=O)O

Test system: db/db mice
Test: Pharmacodynamic single-dose study in db/db mice (blood glucose and body weight)
Format: in vivo
Conditions: single s.c. dose 30 nmol/kg (Examples 1-8) or 10 nmol/kg (Example 10)

CC[C@H](C)[C@H](NC(=O)[C@H](Cc1ccccc1)NC(=O)[C@H](CCCCNC(=O)[C@@H](N)CCCCNC(=O)[C@@H](N)CCCCNC(=O)CC[C@H](NC(=O)CCCCCCCCCCCCCCCCCCC(=O)O)C(=O)O)NC(=O)[C@H](CCCNC(=N)N)NC(=O)[C@H](C)NC(=O)[C@H](C)NC(=O)[C@H](CCC(N)=O)NC(=O)[C@H](CCC(=O)O)NC(=O)[C@H](CCC(=O)O)NC(=O)[C@H](CC(C)C)NC(=O)[C@H](Cc1ccc(O)cc1)NC(=O)[C@H](CO)NC(=O)[C@H](CO)NC(=O)[C@@H](NC(=O)[C@H](CC(=O)O)NC(=O)[C@H](CO)NC(=O)[C@@H](NC(=O)[C@H](Cc1ccccc1)NC(=O)[C@@H](NC(=O)CNC(=O)[C@H](CCC(=O)O)NC(=O)C(C)(C)NC(=O)[C@@H](N)Cc1c[nH]cn1)[C@@H](C)O)[C@@H](C)O)C(C)C)C(=O)N[C@@H](C)C(=O)N[C@@H](Cc1c[nH]c2ccccc12)C(=O)N[C@@H](CC(C)C)C(=O)N[C@H](C(=O)N[C@@H](CCCNC(=N)N)C(=O)NCC(=O)N[C@@H](CCCNC(=N)N)C(=O)NCC(=O)NCC(=O)NCC(=O)NCC(=O)N[C@@H](CO)C(=O)N[C@@H](CCCCNC(=O)[C@@H](N)CCCCNC(=O)[C@@H](N)CCCCNC(=O)CC[C@H](NC(=O)CCCCCCCCCCCCCCCCCCC(=O)O)C(=O)O)C(=O)O)C(C)C [Example 8, N{Epsilon-27}-[(2S)-2-amino-6-[[(2S)-2-amino-6-[[(4S)-4-carboxy-4-(19-carboxynonadecanoylamino)butanoyl]amino]hexanoyl]amino]hexanoyl]-[Aib8,Glu22,Arg26,Lys27,Arg34]-GLP-1-(7-37)-peptidyl-Gly-Gly-Gly-Ser-N{Epsilon}[(2S)-2-amino-6-[[(2S)-2-amino-6-[[(4S)-4-carboxy-4-(19-carboxynonadecanoylamino)butanoyl]amino]hexanoyl]amino]hexanoyl]Lys] (H-H[Aib]EGTFTSDVSSYLEEQAARK([εLys-εLys-γGlu-C20 diacid])FIAWLVRGRGGGGSK([εLys-εLys-γGlu-C20 diacid])-OH)
% change in body weight 48 h (48 h vs basal): −4%
% change in blood glucose 48 h (48 h vs basal level): −39%
% change in body weight 96 h (96 h vs basal): −4%
% change in blood glucose 96 h (96 h vs basal level): −31%
